According to patent publication EP4843985A1, “TRIAZOLOPYRIMIDINE DERIVATIVE, PREPARATION METHOD THEREFOR AND USE THEREOF” (dated 2026):
The match of structure and compound is tentative.

Chains of the proteins cited; added tags and fusions are not shown.
UniProt Q12809, whole entry: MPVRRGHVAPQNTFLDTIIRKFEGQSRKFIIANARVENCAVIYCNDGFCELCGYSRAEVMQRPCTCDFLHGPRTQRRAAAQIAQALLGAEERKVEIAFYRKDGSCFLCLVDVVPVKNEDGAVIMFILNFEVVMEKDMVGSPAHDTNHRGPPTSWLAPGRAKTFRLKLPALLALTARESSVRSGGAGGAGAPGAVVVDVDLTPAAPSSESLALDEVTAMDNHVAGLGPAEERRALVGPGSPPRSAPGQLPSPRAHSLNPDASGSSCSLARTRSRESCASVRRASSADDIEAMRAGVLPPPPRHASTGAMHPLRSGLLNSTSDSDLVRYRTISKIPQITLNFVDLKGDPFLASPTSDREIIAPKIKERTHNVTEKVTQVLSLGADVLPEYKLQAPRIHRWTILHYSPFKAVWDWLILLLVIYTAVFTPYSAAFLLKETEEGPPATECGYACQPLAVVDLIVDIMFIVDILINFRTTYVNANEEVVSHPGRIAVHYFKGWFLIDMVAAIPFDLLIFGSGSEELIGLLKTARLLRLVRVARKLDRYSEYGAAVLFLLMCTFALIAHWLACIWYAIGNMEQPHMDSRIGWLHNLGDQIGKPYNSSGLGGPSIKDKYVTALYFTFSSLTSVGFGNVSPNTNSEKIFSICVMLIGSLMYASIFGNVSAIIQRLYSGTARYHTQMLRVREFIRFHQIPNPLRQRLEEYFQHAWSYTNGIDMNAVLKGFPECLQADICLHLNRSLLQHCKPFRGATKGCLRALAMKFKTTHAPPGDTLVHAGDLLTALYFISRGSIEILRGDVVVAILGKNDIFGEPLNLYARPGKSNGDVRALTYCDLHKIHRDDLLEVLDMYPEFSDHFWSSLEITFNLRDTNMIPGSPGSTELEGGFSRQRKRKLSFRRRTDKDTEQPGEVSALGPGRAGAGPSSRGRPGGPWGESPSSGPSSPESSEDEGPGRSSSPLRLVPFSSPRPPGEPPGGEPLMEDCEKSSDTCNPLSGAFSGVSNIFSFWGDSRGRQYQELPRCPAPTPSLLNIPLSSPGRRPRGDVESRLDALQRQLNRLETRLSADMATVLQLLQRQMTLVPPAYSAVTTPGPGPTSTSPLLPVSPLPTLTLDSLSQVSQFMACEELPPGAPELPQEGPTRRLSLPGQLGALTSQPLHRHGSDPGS

Assays:
hERG potassium channel = hERG potassium channel (Homo sapiens, UniProt Q12809); assay: Whole-cell manual patch clamp assay (CHO-hERG cells); conditions: for inhibitory effect on hERG potassium channel current (in words): comparison with 21A / general statement; for IC50: read-out: IC50 (µM) for inhibition of hERG potassium channel current, CHO-hERG cells, tail current at -50 mV
Description: In this assay, the electrophysiological whole-cell manual voltage clamp method was used to test the effect of the compounds on the hERG potassium channel (human Ether-a-go-go Related Gene potassium channel) current.
Cisapride, sodium chloride, potassium chloride, magnesium chloride, calcium chloride, glucose, HEPES, EGTA, and DMSO were purchased from Sigma; the CHO-hERG cell line (Chinese Hamster Ovary) (Chinese hamster ovary cells stably expressing the hERG channel) was constructed internally by the Ion Channel Research Platform of the Shanghai Institute of Materia Medica, Chinese Academy of Sciences.
Cell culture and treatment: CHO cells stably expressing hERG were cultured in 35-mm-diameter cell culture dishes, placed in an incubator at 37°C with 5% CO2, and passaged every 48 hours at a ratio of 1:5. The culture medium formulation: 90% F12 (Invitrogen), 10% fetal bovine serum (Gibco), 100 µg/mL G418 (Invitrogen), and 100 µg/mL Hygromycin B (Invitrogen). On the day of the experiment, the cell culture medium was aspirated, the cells were rinsed once with extracellular fluid, and then 0.25% Trypsin-EDTA (Invitrogen) solution was added, followed by digestion at room temperature for 3-5 minutes. The digestion solution was aspirated, and the cells were resuspended in extracellular fluid, and then transferred to experimental dishes for electrophysiological recording for later use.
Compound preparation: On the day of testing, the compounds were prepared as 20 mM stock solutions in DMSO. The stock solutions were then subjected to 3-fold serial dilutions with DMSO and subsequently diluted with extracellular solution to obtain the desired final test concentrations. Preparation of positive control compound cisapride: 10 µL of 150 µM cisapride DMSO stock solution was taken and added to 4990 µL of extracellular fluid, diluted 500-fold to obtain the desired final test concentration of 300 nM.
Electrophysiological recording process: CHO cells stably expressing the hERG potassium channel were used to record hERG potassium channel currents at room temperature using the whole-cell voltage-clamp technique. Glass microelectrodes were fabricated from glass electrode blanks (BF150-86-10, Sutter) using a puller. After filling with electrode internal solution, the tip resistance was approximately 2-5 MΩ. The glass microelectrodes were inserted into the amplifier headstage to connect to the patch-clamp amplifier. The clamping voltage and data recording were controlled and recorded by pClamp software via a computer, with a sampling frequency of 10 kHz and a filter frequency of 2 kHz. After obtaining the whole-cell recording, the cells were clamped at -100 mV. […]

[1] = Plasma protein binding rate (equilibrium dialysis), human; conditions: 5 µM, 6 hours dialysis
Procedure: (§1) The purpose of this test was to evaluate the protein binding rate of the test drug in plasma of human, monkey, dog, rat and mouse using the equilibrium dialysis method.
(§2) Plasma (EDTA-K2 anticoagulated) was stored in a -80°C freezer. Stop solution, acetonitrile (containing 100 nM alprazolam, 200 nM caffeine, and 100 nM tolbutamide as internal standards).
(§3) The test article and the control compound ketoconazole were prepared as high-concentration DMSO stock solutions and diluted to 1 mM working solution, with a final test concentration of 5 µM.
(§4) NaH2PO4 (12.0 g) and NaCl (8.77 g) were weighed and dissolved in 1 L of water to prepare an alkaline solution. Na2HPO4 (14.2 g) and NaCl (8.77 g) were weighed and dissolved in 1 L of water to prepare an acidic solution. The alkaline solution and the acidic solution were titrated to pH 7.4.
(§5) The temperatures of the water bath and incubator were pre-adjusted to 37°C. The plasma was removed from -80°C, rapidly thawed in a 37°C water bath, and centrifuged at 2000 g for 5 minutes at room temperature. The clot was removed, and the supernatant was transferred to a new centrifuge tube. The pH of the plasma was tested and recorded. (Note: a. Only plasma with a pH range of 7.2-7.8 was used. b. Only plasma that had been thawed no more than twice after receipt was used.)
(§6) The equilibrium dialysis membrane was soaked in pure water for 60 minutes, then in 20% ethanol for 20 minutes, and finally in dialysis buffer for 20 minutes. The soaked dialysis membrane was then spread flat on a clean HTDialysis clamping device, and the dialysis device was assembled according to the product manual.
(§7) 3 µL of the working solution of the test drug and the control drug was taken and added to 597 µL of pre-incubated plasma, and mixed thoroughly. The final organic solvent content in the incubation system was 0.5%. […]
(§8) All data calculations were performed using Microsoft Excel software. The concentrations of the drug in free samples and plasma samples were determined. […]

[2] = Plasma protein binding rate (equilibrium dialysis), dog; conditions: 5 µM, 6 hours dialysis
Procedure: as §1, §2, §3, §4, §5, §6, §7, §8

Structure (SMILES) | inhibitory effect on hERG potassium channel current (in words) (hERG potassium channel) | IC50 (hERG potassium channel) [µM] | Bound percentage [1] | Free percentage [1] | Recovery rate [1] [%] | Bound percentage [2] | Free percentage [2] | Recovery rate [2] [%]
[2H]C1([2H])CCC(c2nc3n4c(c(N5CCN(C(=O)c6ncnc(C)c6O)[C@H]6CC[C@@H]65)c(=O)n3n2)[C@H](C)C[C@@H]4C(=O)Nc2scc(C(F)(F)F)c2C)=CCO1 | further significantly reduce the inhibitory effect of the compound on hERG potassium channel current | > 100 | 97.47 | 2.53 | 94.6 | 91.91 | 8.09 | 90
[2H]C1([2H])CCC(c2nc3n4c(c(N5CCN(C(=O)c6ncnc(C)c6O)[C@H]6CC[C@@H]65)c(=O)n3n2)[C@H](C)C[C@@H]4C(=O)Nc2ccc(C(F)(F)F)cc2Cl)=CCO1 | significantly reduce the inhibitory effect of the compound on hERG potassium channel current | 62.1 | – | – | – | – | – | –
